# The whole screen tested about 360,000 compounds, of which about 7,500 (2.1%) were called active. Inconclusive results, whose numbers are uncertain, are shown with a selection of clear calls. The call rests on the fitted dose curve; in most records, active means well fitted inhibition curve with a large enough effect; inconclusive means small, poorly fitted or top-dose-only effect, or effect the other way; inactive means flat fitted curve, though single readings scatter. Potencies of inconclusive entries are doubtful fits and often do not repeat.
# Assay: Nrf2 qHTS screen for inhibitors; further: nearly all actives have a fitted effect of over 60% in size
# Details: A549 ARE-Fluc reporter, luciferase luminescence, 18-24 h; series mostly up to 46 µM
# In short: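 Nrf2 activity is the BugLite luminescence, read 15 min after reagent at room temperature, following CellTiter-Fluor cytotoxicity readout (30 min, 37C). Compound titrations were applied for 18-24 h to 5000 A549 ARE_Fluc cells/well in 5% FBS OPTI-MEM.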
# Potency means the concentration at half of the fitted maximal effect.
row,SMILES,Potency
1,Cc1c(C#N)c(O)[nH]c(=O)c1N=Nc1ccc(Br)cc1C(=O)O,inactive
2,CNc1ncnc(Sc2nc(N)nc3nc[nH]c23)c1[N+](=O)[O-],"inconclusive: 2.59 µM [falling, full curve]"
3,CC(OC(=O)c1oc2ccccc2c1COc1ccccc1)C(N)=O (stereo not drawn),"inconclusive: 23.1 µM [falling, partial curve, poor fit]"
4,CC1=C(C(=O)OCC2CCCO2)C(c2coc3ccc(C)cc3c2=O)C2=C(CCCC2=O)N1 (stereo not drawn),"inconclusive: 2.91 µM [activator, single point]"
5,Cc1ccc(Nc2sc(C(=O)c3ccccc3)c(N)c2S(=O)(=O)c2ccccc2)c(C)c1,inactive
6,N#Cc1ccccc1OCC(=O)N(Cc1nnc(-c2ccccc2Cl)o1)C1CC1,"inconclusive: 6.51 µM [falling, single point]"
7,CCNC(=O)/C(C#N)=C/c1c(N2CC(C)OC(C)C2)nc2ccccn2c1=O (stereo not drawn),inactive
8,COc1ccc(C(=O)Nc2ccc(NC(=O)c3ccccc3)cc2)cc1S(=O)(=O)N1CCOCC1,"inconclusive: 16.4 µM [falling, single point]"
9,COc1ccc(CCNC(=O)c2c(C)nn(-c3ccc(F)cc3)c2-n2cccc2)c(OC)c1OC,"inconclusive: 20.6 µM [falling, partial curve, poor fit]"
10,CCn1c(=O)n(CC)c2cc(N3CCCC3)c(NC(=O)c3cccc(Cl)c3)cc21,inactive
11,COc1ccc(/C=C/C(=O)Nc2ccc(S(=O)(=O)N3CCOCC3)cc2)c(OC)c1,"inconclusive: 16.4 µM [falling, partial curve]"
12,COc1ccc(-n2ncc(C(=O)Nc3ccc4c(c3)OCCO4)c2C2CCN(C(=O)OC(C)(C)C)CC2)cc1,"inconclusive: 14.6 µM [falling, single point]"
13,CCOc1ccc(CNC(=O)C2CCCN(S(=O)(=O)N(CC)c3ccc(OCC)cc3)C2)cc1 (stereo not drawn),active: 16.4 µM
14,COc1ccc2[nH]cc(CCNC(=O)c3cnn(-c4ccccc4Cl)c3C3CCN(C(=O)OC(C)(C)C)CC3)c2c1,"inconclusive: 20.6 µM [falling, single point]"
15,Cc1ccc(C(=O)O/N=C(\N)c2ccccn2)cc1C,"inconclusive: 0.326 µM [activator, full curve]"
16,NC(=O)CCN(C(=O)c1cccc(S(=O)(=O)N2CCc3ccccc32)c1)c1ccccc1,"inconclusive: 18.4 µM [falling, partial curve, poor fit]"
17,COc1ccc(-c2[nH]c(-c3cccc(OC)c3)nc2SCC(=O)NCc2ccco2)cc1,"inconclusive: 8.2 µM [falling, partial curve, poor fit]"
18,Cc1csc2c(N3CCN(C(=S)Nc4ccc(C(F)(F)F)cc4)CC3)ncnc12,"inconclusive: 29.1 µM [falling, single point]"
19,CC(C)OCCCNc1nc(-c2ccccc2)nc2ccccc12,"inconclusive: 29.1 µM [falling, single point]"
20,CCCn1c(Cc2ccccc2)n[nH]c1=S,inactive
21,Cc1ccc(NC(=O)Cn2nnc(-c3nc(-c4ccc(Cl)cc4)no3)c2N)cc1C,"inconclusive: 0.651 µM [activator, partial curve, poor fit]"

# 2 of the compounds above, as tab-separated lines.
row	SMILES	Potency
2	CNc1ncnc(Sc2nc(N)nc3nc[nH]c23)c1[N+](=O)[O-]	inconclusive: 2.59 µM [falling, full curve]
10	CCn1c(=O)n(CC)c2cc(N3CCCC3)c(NC(=O)c3cccc(Cl)c3)cc21	inactive

# (listing goes on)

row,SMILES,Potency
1,COc1ccc(CNC(=O)c2cccc(S(=O)(=O)N3CCN(c4ccc(F)cc4)CC3)c2)cc1,"inconclusive: 20.6 µM [falling, partial curve]"
2,CC1=C(C(=O)OC(C)C)C(c2cccs2)n2ncnc2N1 (stereo not drawn),"inconclusive: 18.4 µM [falling, single point]"
3,O=C(C1CCC(CNc2nc(=S)[nH]c3ccccc23)CC1)N1CCN(c2ccc(F)cc2)CC1 (stereo not drawn),"inconclusive: 18.4 µM [falling, partial curve, poor fit]"
4,CN(C)/C=C/C(=O)c1ccncc1,inactive
5,CCOc1cc(/C=C2/NC(=O)N(CC(=O)OC)C2=O)ccc1O,"inconclusive: 20.6 µM [activator, single point]"
6,Cc1[nH]c2ccccc2c1C(=O)COC(=O)c1ccc([N+](=O)[O-])s1,"inconclusive: 29.1 µM [falling, single point]"
7,COc1cc(C=O)ccc1OCCCOc1ccccc1C(=O)O,active: 8.2 µM
8,Cc1cc(OCC(=O)N2CCCC2)ccc1Cl,"inconclusive: 7.31 µM [activator, partial curve, poor fit]"
9,CCc1nnc(NC(=O)CCC(=O)N2CCN(Cc3ccc(Cl)cc3)CC2)s1,active: 23.1 µM
10,c1ccc(Nc2c(-c3ccco3)nc3ccccn23)cc1,"inconclusive: 14.6 µM [activator, partial curve]"
11,Cc1cc(Br)ccc1NC(=O)CN(C)C(=O)c1ccc2ccccc2n1,"inconclusive: 29.1 µM [activator, single point]"
12,COc1ccc(NC(=O)CCN2CCN(CCO)CC2)cc1,inactive
13,CCN(c1cc(C)cc(C)c1)S(=O)(=O)c1nnc(NC(=O)c2ccco2)s1,"inconclusive: 32.6 µM [falling, single point]"
14,O=C(CC1SC(=Nc2ccccc2F)N(CCN2CCOCC2)C1=O)Nc1ccc(F)cc1F (stereo not drawn),"inconclusive: 9.2 µM [falling, partial curve, poor fit]"
15,CN(C)c1ccc(C2Nc3ccccc3C(=O)N2NS(=O)(=O)c2ccccc2)cc1 (stereo not drawn),"inconclusive: 0.58 µM [falling, partial curve]"
16,COc1ccccc1CN(C)C(=O)COC(=O)c1ccc(Cl)nc1,inactive
17,COc1ccc(CC(=O)N(CC2CCCO2)c2nc3ccccc3s2)cc1 (stereo not drawn),"inconclusive: 18.4 µM [activator, single point]"
18,CCCOc1cccc(C(=O)NC(=S)Nc2cccc(NC(=O)c3ccccc3Cl)c2)c1,"inconclusive: 1.03 µM [falling, partial curve, poor fit]"
19,CCN(CC(=O)Nc1ccc2c(c1)OCCO2)C(=O)c1ccc(Cl)cc1Cl,"inconclusive: 2.06 µM [activator, full curve]"
20,O=C(N/N=C/c1ccccn1)c1cc(-c2ccc3ccccc3c2)n[nH]1,"inconclusive: 29.1 µM [falling, single point]"
21,O=C(Oc1ccccc1)N1CCN(c2ccc(F)cc2)CC1,"inconclusive: 20.6 µM [falling, single point]"

row,SMILES,Potency
1,N#C/C(=C/C=C/c1ccccc1)C(=O)Nc1ccccc1,"inconclusive: 23.1 µM [falling, single point]"
2,CN(C)c1ccc(/C=N/NC(=O)c2ccn(C)n2)cc1,"inconclusive: 7.31 µM [activator, partial curve]"
3,COC(=O)c1cc(S(=O)(=O)NCCc2cccc(C)c2)cn1C,"inconclusive: 23.1 µM [falling, partial curve]"
4,O=C(c1ccc(Oc2ccc([N+](=O)[O-])cc2Cl)cc1)N1CCCC1,"inconclusive: 20.6 µM [falling, single point]"
5,O=S(=O)(NCC(c1ccco1)N1CCN(c2ccccc2F)CC1)c1ccc2c(c1)OCCO2 (stereo not drawn),inactive
6,CCc1nc2c(cnn2-c2ccc(Cl)cc2)c(=O)n1-c1ccc(OC)c(Cl)c1,"inconclusive: 3.26 µM [activator, full curve, poor fit]"
7,Cc1occc1C(=O)Nc1ccc2c(c1)OCCO2,"inconclusive: 2.31 µM [activator, partial curve, poor fit]"
8,Cn1c(N)c(C(=O)COC(=O)CCC2CCCC2)c(=O)n(C)c1=O,"inconclusive: 10.3 µM [activator, partial curve, poor fit]"
9,CCOc1ccc(N(CC(=O)N2CC=C(c3ccccc3)CC2)S(=O)(=O)c2c(C)noc2C)cc1,"inconclusive: 25.9 µM [falling, partial curve, poor fit]"
10,CC(=C/c1ccccc1)/C=N/NC(=O)c1cccs1,"inconclusive: 5.8 µM [activator, partial curve]"
11,CCCn1c(CCC(=O)Nc2cccc(CC)c2)nc2cccnc21,"inconclusive: 13 µM [falling, partial curve, poor fit]"
12,CC1CCCN(c2ccc(C(=O)NCc3ccccc3)cn2)C1 (stereo not drawn),"inconclusive: 14.6 µM [activator, partial curve]"
13,CNc1nc(Nc2ccc([N+](=O)[O-])cc2)nc(OCC(F)(F)F)n1,"inconclusive: 14.6 µM [falling, partial curve]"
14,Cc1ccccc1CNC(=O)c1ccc(CS(=O)Cc2ccc(Cl)cc2)o1 (stereo not drawn),inactive
15,Cc1ccc(-c2csc(N3CCN(CCCn4c(-c5ccncc5)nc5ccccc54)CC3)n2)cc1,"inconclusive: 29.1 µM [falling, single point]"
16,CCOc1ccc(N2CC(c3nc4ccccc4n3Cc3cccc(C)c3)CC2=O)cc1 (stereo not drawn),"inconclusive: 32.6 µM [falling, single point]"
17,COc1ccc(CN2C(=O)C(C)Nc3ncnc(N4CCOCC4)c32)cc1 (stereo not drawn),"inconclusive: 16.4 µM [activator, partial curve, poor fit]"
18,COc1ccc(CNc2ccc([N+](=O)[O-])cc2C)cc1,"inconclusive: 29.1 µM [activator, single point]"
19,Cc1cccc(NC(=O)c2c(C)nn(-c3ccccc3)c2Cl)c1,"inconclusive: 8.2 µM [activator, partial curve, poor fit]"
20,O=C(CCc1nnc2n(Cc3ccc(Cl)cc3)c(=O)c3ccccc3n12)N1CCN(c2ccccn2)CC1,"inconclusive: 13 µM [falling, partial curve]"
21,Cc1ccn(CCC(=O)N2CCc3ccccc32)n1,"inconclusive: 23.1 µM [activator, partial curve, poor fit]"

# Quoted from the listing:
# Under Potency, `CC1CCCN(c2ccc(C(=O)NCc3ccccc3)cn2)C1` (stereo not drawn) shows inconclusive: 14.6 µM [activator, partial curve]
# Under Potency, `O=C(Oc1ccccc1)N1CCN(c2ccc(F)cc2)CC1` shows inconclusive: 20.6 µM [falling, single point]
# Under Potency, `COc1ccc2[nH]cc(CCNC(=O)c3cnn(-c4ccccc4Cl)c3C3CCN(C(=O)OC(C)(C)C)CC3)c2c1` shows inconclusive: 20.6 µM [falling, single point]

# From PubChem BioAssay AID504444 (National Center for Advancing Translational Sciences (NCATS), 2011)
